Results deposited as PubChem BioAssay AID1259405 (NCATS, 2018).
Assay: 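Silenced genes that increase secreted GFP made by CHO cells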 (primary screen). Cell system: Chinese hamster CHO-K1 ovary cells with stable secreted eGFP expression. Knock-down reagent: single siRNA against mouse genes, 0.8 pmol siRNA per well (2 µl of 400 nM stock). Timing: 3 days. Detection: 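Per-well intracellular GFP measured by laser scanning cytometry, plus viability from ATP luminescence, each relative to plate median of non-targeting control wells, in %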. Reading the numbers: GFP, % of control: higher = more GFP per well, higher productivity; viability (ATP), % of control: higher = more viable cells (more ATP). Rule for the call: 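Called active when intracellular GFP, relative to negative control, is at or above 120%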.
In all, the deposit lists about 50,000 reagents; this is an unselected part. About 4,000 of them (8%) count as active. 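Mouse siRNA library applied to hamster cells; one well for each siRNA.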 Unmarked entries are inactive. The numbers tell different reagents against one gene apart.

Serpinf1 (GeneID 20317) #1: GFP, % of control = 97.6; viability (ATP), % of control = 116
Serpinf1 (GeneID 20317) #2: GFP, % of control = 62.7; viability (ATP), % of control = 51.1
Serpinf1 (GeneID 20317) #3: GFP, % of control = 64.8; viability (ATP), % of control = 57.9
Crygs (GeneID 12970) #1: GFP, % of control = 99.1; viability (ATP), % of control = 104
Crygs (GeneID 12970) #2: GFP, % of control = 78.7; viability (ATP), % of control = 71.5
Crygs (GeneID 12970) #3: GFP, % of control = 135 (active); viability (ATP), % of control = 114
Clnk (GeneID 27278) #1: GFP, % of control = 77.8; viability (ATP), % of control = 61.5
Clnk (GeneID 27278) #2: GFP, % of control = 78.1; viability (ATP), % of control = 60.6
Clnk (GeneID 27278) #3: GFP, % of control = 78.3; viability (ATP), % of control = 44.5
Mptx1 (GeneID 66289) #1: GFP, % of control = 74.3; viability (ATP), % of control = 72.1
Mptx1 (GeneID 66289) #2: GFP, % of control = 76.1; viability (ATP), % of control = 88.1
Mptx1 (GeneID 66289) #3: GFP, % of control = 96.7; viability (ATP), % of control = 72.8
Renbp (GeneID 19703) #1: GFP, % of control = 128 (active); viability (ATP), % of control = 98.3
Renbp (GeneID 19703) #2: GFP, % of control = 49.7; viability (ATP), % of control = 68.9
Renbp (GeneID 19703) #3: GFP, % of control = 67.6; viability (ATP), % of control = 69.4
Fap (GeneID 14089) #1: GFP, % of control = 91.9; viability (ATP), % of control = 88.2
Fap (GeneID 14089) #2: GFP, % of control = 77.7; viability (ATP), % of control = 59.5
Fap (GeneID 14089) #3: GFP, % of control = 71.6; viability (ATP), % of control = 77.8
Stk24 (GeneID 223255) #1: GFP, % of control = 216 (active); viability (ATP), % of control = 141
Stk24 (GeneID 223255) #2: GFP, % of control = 67.8; viability (ATP), % of control = 94.1
Stk24 (GeneID 223255) #3: GFP, % of control = 109; viability (ATP), % of control = 110
Mov10 (GeneID 17454) #1: GFP, % of control = 98.1; viability (ATP), % of control = 101
Mov10 (GeneID 17454) #2: GFP, % of control = 69.2; viability (ATP), % of control = 111
Mov10 (GeneID 17454) #3: GFP, % of control = 31.9; viability (ATP), % of control = 51.9
Pbx4 (GeneID 80720) #1: GFP, % of control = 65.3; viability (ATP), % of control = 87.4
Pbx4 (GeneID 80720) #2: GFP, % of control = 87.9; viability (ATP), % of control = 114
Pbx4 (GeneID 80720) #3: GFP, % of control = 63.2; viability (ATP), % of control = 72.4
Zdhhc19 (GeneID 245308) #1: GFP, % of control = 99.1; viability (ATP), % of control = 80.2
Zdhhc19 (GeneID 245308) #2: GFP, % of control = 58.8; viability (ATP), % of control = 69.3
Zdhhc19 (GeneID 245308) #3: GFP, % of control = 57.4; viability (ATP), % of control = 73.3
Ahsg (GeneID 11625) #1: GFP, % of control = 213 (active); viability (ATP), % of control = 79.6
Ahsg (GeneID 11625) #2: GFP, % of control = 61.4; viability (ATP), % of control = 58.6
Ahsg (GeneID 11625) #3: GFP, % of control = 98.9; viability (ATP), % of control = 65.5
Dym (GeneID 69190) #1: GFP, % of control = 98.5; viability (ATP), % of control = 122
Dym (GeneID 69190) #2: GFP, % of control = 60.6; viability (ATP), % of control = 80.2
Dym (GeneID 69190) #3: GFP, % of control = 72.8; viability (ATP), % of control = 73.5
H2-T10 (GeneID 15024) #1: GFP, % of control = 62.5; viability (ATP), % of control = 68.5
H2-T10 (GeneID 15024) #2: GFP, % of control = 58.5; viability (ATP), % of control = 43
H2-T10 (GeneID 15024) #3: GFP, % of control = 77.4; viability (ATP), % of control = 53.2
Cbs (GeneID 12411) #1: GFP, % of control = 76.8; viability (ATP), % of control = 90.1
Cbs (GeneID 12411) #2: GFP, % of control = 89.8; viability (ATP), % of control = 167
Cbs (GeneID 12411) #3: GFP, % of control = 83.8; viability (ATP), % of control = 115

Active calls, of those listed so far:
Crygs (GeneID 12970) #3: GFP, % of control = 135 (active); viability (ATP), % of control = 114
Renbp (GeneID 19703) #1: GFP, % of control = 128 (active); viability (ATP), % of control = 98.3
Stk24 (GeneID 223255) #1: GFP, % of control = 216 (active); viability (ATP), % of control = 141
Ahsg (GeneID 11625) #1: GFP, % of control = 213 (active); viability (ATP), % of control = 79.6
